Source: PubChem BioAssay AID1347423 (Functional Genomics Laboratory (NCATS/FGL), 2020)
Out of some 52,000 sequences screened, about 210 (0.4%) were called active.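 The calls were made as follows: active = gene whose silencing raises cell survival under the drug, median off-target-corrected z-score across its silencing RNAs 2 or more; inactive = the rest.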 The list shows a part of the results.

Assay: Resistance to Poly (ADP-Ribose) Polymerase inhibitor: Gene Identification via Genome-wide siRNA Screen
Details: mouse BRCA2 R2336H ES cells, olaparib, CellTiter-Glo viability; stronger effect = higher value
Text: The role of Poly (ADP-Ribose) Polymerase (PARP) proteins in DNA repair has been elegantly utilized for the synthetic lethality-based treatment of BRCA-deficient tumors by PARP inhibitors. PARP inhibitors are now being used for treatment of BRCA-deficient breast and ovarian cancers. […] While several mechanisms of drug resistance have been identified, majority of these tumors develop drug resistance due to unknown causes. To identified novel regulators of chemo-resistance in BRCA2-mutated cells, we performed a genome wide siRNA library screen. We have found ES cells expressing a hypomorphic allele of BRCA2 to be hypersensitive to PAPP inhibitors (such as olaparib). We used ES cells expressing a mutant allele of BRCA2 that has a single amino acid substitution at position 2336 (arginine to histidine, R2336H). The screen was conducted using an Ambion (Thermo) Silencer Mouse Genome siRNA collection. The library targets 17,575 mouse genes with 3 siRNAs per gene. TET2 (E130014J05Rik) was identified as a top candidate.
Transfections were performed in 384 well plates (Corning 3707). Plates were coated with 0.1% gelatin in H2O overnight at ambient temperature. Gelatin solution was aspirated (BioTek EL406) and siRNAs were printed using a Bravo VPrep liquid handler integrated within a BioCel automation platform (Agilent). Cell viability was measured using CellTiter Glo (Promega). For transfections, […] of serum free media containing Lipofectamine RNAiMax […] was added to wells containing siRNA (0.8pmol). Lipid and siRNA were allowed to complex for 45 min at ambient temperature before addition of 1000 cells in DMEM, 30% FBS to yield final transfection mixtures containing 20 nM siRNA in DMEM, 15% FBS. PARPi (olaparib, AZD2281) was added 48 h post-transfection (500 nM) and viability (CellTiter Glo, Promega) was assayed 72 h later on a PerkinElmer Envision 2104 Multilabel plate reader. Ambion Silencer Select Negative Control #2 was incorporated on all screening plates (16 wells) and the median negative control value on each plate was used for normalization. An siRNA targeting Trp53 was used as a positive control. This control yielded a median protective effect of ~1.9 fold versus negative control throughout the screen. The median absolute deviation (MAD) based z-score was calculated for each siRNA. Genes were then ranked by taking the median value for all siRNAs tested against a given gene. Scores were also adjusted for seed-based off-target effects to help deprioritize likely false positives.

Row | Sequence | z-score
1 | CGAGUAUGCCGAAAACACUTT against Car6 | inactive: -0.00439
2 | GCUGACAAAGUCGUUUCCUTT against Olfr732 | inactive: -0.268
3 | GGAGAAAACACAAUGUCUUTT against Limd1 | inactive: -0.414
4 | CCACCACAAGUACCGUAAATT against 0610033H09Rik | inactive: 1.49
5 | CCCAAGAAUGACCAAGUAGTT against Gpr17 | inactive: -3.19
6 | CCAUUACAGGGUUUUUUAUTT against Slc37a3 | inactive: 0.0842
7 | GGCUAAGUGGGUGUUCACGTT against Slc24a4 | inactive: -0.409
8 | GGUAUUGUGUUUCCCAAACTT against BC018371 | inactive: -0.387
9 | GGCUUUUGACUUUACCCUATT against Acy3 | inactive: -1.38
10 | UUACUCAGUUCUCACCUUCTT against Olfr970 | inactive: -2.89
11 | GGUAUGAGUACAAAUACUGTT against Tek | inactive: -0.81
12 | GACCGAGUUCAAAGCGAACTT against Atp5e | inactive: -2.59
13 | GCCUGUCGUACCUCCUUUATT against Folr2 | inactive: -0.854
14 | GGUGGAUGAAGUUAUUGAUTT against Vamp4 | inactive: 0.0211
15 | GGAGUCGUCAACUCUGGCUTT against Lsm10 | inactive: -0.263
16 | GGUGAAUGCACCUUGACCCTT against 4921511D23Rik | inactive: -0.187
17 | UUCGGAUCCUAACUUCAACTT against Zmynd12 | inactive: -1.22
18 | CGACUACACAACCUUUGGGTT against Prlpa | inactive: -1.03
19 | GGGCAAAGCCUUCAACCCUTT against Insl6 | inactive: -0.729
20 | CGCAGAUGUGUUAACUAAATT against 3110038L01Rik | inactive: 0.116
21 | GGAGAGUGUGUUUUCAGGCTT against Bop1 | inactive: 1.27
22 | GGGUGUCAAUUUACUUUUUTT against Slc16a2 | inactive: 0.33
23 | GCAUGCAUGUAUUUUUUAGTT against E030018N11Rik | inactive: 0.237

A second format for some results above:
CGAGUAUGCCGAAAACACUTT against Car6
  z-score: inactive: -0.00439
CCCAAGAAUGACCAAGUAGTT against Gpr17
  z-score: inactive: -3.19
GGAGAGUGUGUUUUCAGGCTT against Bop1
  z-score: inactive: 1.27

Next part

Row | Sequence | z-score
24 | CCUCUAUGUGAGAUUUGAGTT against Mamdc2 | inactive: -0.131
25 | GGUGGUCCAGGGAAGUAGATT against Gucy2e | inactive: 0.504
26 | GGAAACCAUCAUGAAGAAATT against Ysg2 | inactive: -0.657
27 | GCACGGUGAGAUCAUCAAATT against Ap3b2 | inactive: -0.226
28 | GGCUGAAUCGAAGAGACGGTT against Cntnap4 | inactive: 1.56
29 | CCCAAAUGUUAUUCCAAAUTT against 9230110C19Rik | inactive: 2.7
30 | GGAUGCUUUCAAACAUAUGTT against Olfr812 | inactive: 0.475
31 | GGAUGUCAUCAAUGCUAUGTT against Olfr1022 | inactive: -0.704
32 | GGACCAGUUACUUUAACAUTT against Pkdrej | inactive: -0.102
33 | GGCCUGCGUCAACUUUCUGTT against Btbd6 | inactive: 1.02
34 | GGACAAUGGUUCACUUUUATT against Gmpr | inactive: 1.24
35 | GCCACUUCCGGUCAACUAUTT against Cog1 | inactive: -1.81
36 | GGGUUGUGCAUUUUAUUGGTT against Srd5a2l2 | inactive: 0.0758
37 | GGCCUAGACUGGUGCAAUGTT against Hapln3 | inactive: 1.61
38 | CCUUUGCCUAUGUUUACCATT against Ropn1l | inactive: -0.695
39 | CGAUUUGAACACUGAUCAATT against Bub3 | inactive: -1.51
40 | GCCUUUUAUACAUGUUUGATT against LOC434198 | inactive: 0.964
41 | CCAGCCCAUACCCAUUACCTT against Olfr3 | inactive: -0.689
42 | GCUAUAAAUUCAGCAUUGGTT against Gtf2a2 | inactive: -0.941
43 | GGAGAAACAACAGUUUCAGTT against Maml1 | inactive: 1.63
44 | GGCUGUAACCUCUUCAUCUTT against Brunol6 | inactive: 0.624
45 | GGAAGAGAAGUUGUCCAAATT against Creld1 | inactive: -0.997
46 | GCAAAUGUGGGACAGUAAGTT against Wdfy2 | inactive: -1.92

Row | Sequence | z-score
47 | GGACCUAUAGUUCAACAAGTT against 2500001H09Rik | inactive: -1.42
48 | GGUUACCAGAAAAUAACUATT against E130114P18Rik | inactive: -0.516
49 | CCUAAUUGUAGUAGUACUATT against Olfr117 | inactive: 0.378
50 | GACACUCAGACGGAAUGUUTT against Sct | inactive: -1.85
51 | GGAGUUCAAAGACCCUCUGTT against 1810014L12Rik | inactive: -1.32
52 | GGCCACUUGCCUAUUGUGATT against Anxa6 | inactive: 1.97
53 | GGUAGACUCUGACUUUGACTT against Tcfl1 | inactive: -0.768
54 | GCCUAUGAGUAUCGAAUGUTT against Trim21 | inactive: 0.126
55 | GGAAGCACUUCUGCUUUCUTT against 4933429I20Rik | inactive: 0.523
56 | CCAUUUCAGGUUCAAUCGGTT against B4galt7 | inactive: 1.26
57 | GCUAUACGCGAAAUUUGGCTT against Pfdn4 | inactive: 0.0886
58 | GCUUAUGACCCUAAGCACUTT against Tpte | inactive: -0.198
59 | GGAAAAGGUUUCUUCUAAATT against Nalp2 | inactive: 0.176
60 | CCAAGUAUUUCACAAACCGTT against Slc29a1 | inactive: 1.5
61 | GGAAUUCUUUCCAAACUGGTT against Steap | inactive: -0.74
62 | GGAGUUUCAGAUGUUGAAATT against Cpne2 | inactive: 0.44
63 | GGCAGAACCCACUGAGAAATT against Akap2 | inactive: 0.525
64 | GGCGAGUGCUGAAUCUUUGTT against Pcdhb20 | inactive: -0.105
65 | CCUGAAGCUUUUGAUCCUATT against Sec10l1 | inactive: 1.25
66 | GGCACUUUGUGGCAAAUCUTT against Pcdhb1 | inactive: -0.786
67 | GGAUUAUGUAGAGGCCCAATT against Gngt2 | inactive: 1.25
